Data as given in PubChem BioAssay AID504793 (Drosophila RNAi Screening Center, 2011)

- Test: 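Genes required for cells to halt at G2/M after double-strand DNA breaks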 (primary screen)
- Cell system: Drosophila S2R+ cells
- Reagents: long dsRNA against Drosophila genes, about 0.25 µg dsRNA per well
- Timing: 4 days of dsRNA, then 4 hours of drug before read-out
- Conditions: doxorubicin 0.5 µM for 4 hours to cause double-strand breaks, in cells also given a low, harmless dose of dsRNA against nbs to sensitise the assay
- Measured: 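Mitotic index as the number of phospho-histone H3-positive cells in each well following doxorubicin, given as raw counts without normalisation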
- Direction: mitotic cells: higher = more cells in mitosis, weaker G2 arrest
- Rule for the call: 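a call needs confirmation in secondary tests, with other dsRNAs and a check of mitotic timing without damage, not just a high primary count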
- Meaning of the calls: active = confirmed in follow-up tests; inactive = not confirmed
The deposit covers about 23,000 reagents; shown is an unselected part of those that have a named target and a result. Of all reagents, 62 (0.27%) are marked active. 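Calls come from follow-up tests whose scores are not deposited, so confirmed genes may have low counts here; counts are not normalised per plate.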 Raw values are not corrected between plates. Unmarked entries are inactive. A plus sign joins genes that one reagent is predicted to hit.

For chas (chascon) [DRSC19508], the entry reads mitotic cells, replicate 1 = 16.
chas (chascon) [DRSC19509] gave mitotic cells, replicate 1 = 15.
Knock-down of chas (chascon) [DRSC29130] resulted in: mitotic cells, replicate 1 = 1.
cv-d (crossveinless d) [DRSC16522] gave mitotic cells, replicate 1 = 8.
After knock-down of cv-d (crossveinless d) [DRSC16524], the screen gave mitotic cells, replicate 1 = 30.
For cv-d (crossveinless d) [DRSC16526], the values are mitotic cells, replicate 1 = 6.
Silencing of zip (zipper) [DRSC04725] came out at: mitotic cells, replicate 1 = 8.
zip (zipper) [DRSC22489] scored mitotic cells, replicate 1 = 10.
zip (zipper) [DRSC28416] gave mitotic cells, replicate 1 = 4.
Lcp65Ag3 + Lcp65Ag2 + Lcp65Ag1 [DRSC11214] showed mitotic cells, replicate 1 = 4.
With knock-down of Lcp65Ag3 + Lcp65Ag2 + Lcp65Ag1 [DRSC11215] the results were mitotic cells, replicate 1 = 4.
CG6280 [DRSC06972] scored mitotic cells, replicate 1 = 4.
ana (anachronism) [DRSC07579] gave mitotic cells, replicate 1 = 3.
ana (anachronism) [DRSC24236] scored mitotic cells, replicate 1 = 5.
Against eIF2A (eukaryotic translation initiation factor 2A) [DRSC11825] the deposit lists mitotic cells, replicate 1 = 3.
Against sing (singles bar) [DRSC19530], the entry reads mitotic cells, replicate 1 = 7.
Against CG30357 [DRSC22472], the entry reads mitotic cells, replicate 1 = 45.
CG18266 [DRSC02659] scored mitotic cells, replicate 1 = 7.
After knock-down of PIG-K (Phosphatidylinositol glycan anchor biosynthesis class K) [DRSC18496], the record shows mitotic cells, replicate 1 = 9.
CG9877 [DRSC04587] gave mitotic cells, replicate 1 = 8.
CG9877 [DRSC25386] gave mitotic cells, replicate 1 = 5.
Vti1b (Vesicle transport through interaction with t-SNAREs 1b) [DRSC16283] showed mitotic cells, replicate 1 = 8.
For Vti1b (Vesicle transport through interaction with t-SNAREs 1b) [DRSC16284], the values are mitotic cells, replicate 1 = 8.
Zdhhc8 (Zinc finger DHHC-type containing 8) [DRSC18044] gave mitotic cells, replicate 1 = 7.
After knock-down of Zdhhc8 (Zinc finger DHHC-type containing 8) [DRSC18122], the screen gave mitotic cells, replicate 1 = 11.
Zip102B (Zinc/iron regulated transporter-related protein 102B) [DRSC17155] scored mitotic cells, replicate 1 = 25.
Zip102B (Zinc/iron regulated transporter-related protein 102B) [DRSC26001] showed mitotic cells, replicate 1 = 5.
Against CG6420 [DRSC16035], the values are mitotic cells, replicate 1 = 15.
After knock-down of Arc1 (Activity-regulated cytoskeleton associated protein 1) [DRSC06159], the screen gave mitotic cells, replicate 1 = 12.
For Arc1 (Activity-regulated cytoskeleton associated protein 1) [DRSC28128], the values are mitotic cells, replicate 1 = 12.
Eip63F-1 (Ecdysone-induced protein 63F 1) [DRSC08659] scored mitotic cells, replicate 1 = 2.
Eip63F-1 (Ecdysone-induced protein 63F 1) [DRSC25229] scored mitotic cells, replicate 1 = 7.
Against Ssl2 (Strictosidine synthase-like 2) [DRSC14395], the entry reads mitotic cells, replicate 1 = 8.
After knock-down of Ssl2 (Strictosidine synthase-like 2) [DRSC22796], the record shows mitotic cells, replicate 1 = 11.
